Reference: PMC5247571 (International Journal for Parasitology: Drugs and Drug …, 2017)

Test system: blowfly larvae (Lucilia cuprina)
Assay: Blowfly larval bioassay
Assay type: in vivo
Conditions: L. cuprina LS strain; number of pupae on Day 9 vs controls; 2 experiments

O=C(CCCCCCC(=O)Nc1ccccc1)NO [SAHA, suberoylanilide hydroxamic acid]
Blowfly bioassay, pupation, IC50: >1000 μg/assay
